Values from PubChem BioAssay AID1259254 (NCATS, 2017).
Here is an unselected part of about 59,000 reagents tested. Of all reagents, about 1,550 (2.6%) are marked active. 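G2 share is only a proxy for re-replication; each gene was hit by three separate siRNAs, and active genes were retested.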 The numbers tell different reagents against one gene apart. Further read-outs or replicates are left out here. Not given: the amount of reagent.

- Screen: 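Finding genes that stop cells copying their DNA twice in one cycle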 (primary screen)
- System: human HCT116 colorectal cancer cells
- Reagent: single siRNA against human genes
- Timing: 3 days
- Measured: 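Nuclei stained with Hoechst and imaged; cell-cycle phase assigned by DNA content; G2 share scaled per plate, non-targeting siRNA 0%, GMNN siRNA 100%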
- Direction: G2 robust z-score: higher = more G2 cells, more excess DNA replication
- Hit rule: 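Active siRNAs have a G2 robust z of 5 or more median absolute deviations over the median, which in these data means about 38% or higher of GMNN control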

G2 robust z-score, by target gene and reagent
RAB11FIP1: #1 3.16 inactive; #2 2.15 inactive; #3 -0.143 inactive
CORO6: #1 -0.915 inactive; #2 1.63 inactive; #3 0.62 inactive
CACNG1: #1 -0.888 inactive; #2 0.823 inactive; #3 2.86 inactive
CHST5: #1 -0.12 inactive; #2 -0.535 inactive; #3 1.5 inactive
CCN6: #1 0.553 inactive; #2 -0.253 inactive; #3 2.69 inactive
DST: #1 -0.583 inactive; #2 0.0712 inactive; #3 0.453 inactive
OR10H3: #1 0.0849 inactive; #2 0.108 inactive; #3 -0.0748 inactive
ARHGEF25: #1 0.515 inactive; #2 -1.49 inactive; #3 0.474 inactive
NUDCD3: #1 -0.736 inactive; #2 0.0561 inactive; #3 -0.494 inactive
FUZ: #1 -0.765 inactive; #2 -0.22 inactive; #3 -0.463 inactive

11 of these entries, reformatted.
| target gene | reagent | G2 robust z-score | call |
| --- | --- | --- | --- |
| RAB11FIP1 | 2 | 2.15 | inactive |
| RAB11FIP1 | 3 | -0.143 | inactive |
| CORO6 | 1 | -0.915 | inactive |
| CORO6 | 2 | 1.63 | inactive |
| CORO6 | 3 | 0.62 | inactive |
| CACNG1 | 1 | -0.888 | inactive |
| CACNG1 | 2 | 0.823 | inactive |
| CACNG1 | 3 | 2.86 | inactive |
| CHST5 | 1 | -0.12 | inactive |
| CHST5 | 2 | -0.535 | inactive |
| CHST5 | 3 | 1.5 | inactive |

Continued:
G2 robust z-score, by target gene and reagent
LDHB: #1 1.31 inactive; #2 -1.61 inactive; #3 -0.384 inactive
SPTBN5: #1 0.74 inactive; #2 -0.494 inactive; #3 -0.477 inactive
BMAL2: #1 -0.524 inactive; #2 5.28 active; #3 1.4 inactive
PGF: #1 -0.326 inactive; #2 -0.812 inactive; #3 1.45 inactive
RANBP3L: #1 2.31 inactive; #2 1.05 inactive; #3 -0.873 inactive
TAOK1: #1 -0.844 inactive; #2 -0.9 inactive; #3 -0.978 inactive
CCNB3: #1 -0.66 inactive; #2 3.97 inactive; #3 -0.206 inactive
GPR143: #1 -0.693 inactive; #2 -0.886 inactive; #3 -0.55 inactive
LINC00693: #1 0.871 inactive; #2 0.556 inactive; #3 -0.604 inactive
RSBN1L: #1 -0.45 inactive; #2 0.402 inactive; #3 -0.111 inactive
TAAR9: #1 0.236 inactive; #2 -0.887 inactive; #3 0.237 inactive
NUDT19: #1 1.26 inactive; #2 0.36 inactive; #3 -0.352 inactive
ZNF695: #1 0.88 inactive; #2 -0.657 inactive; #3 -0.672 inactive
